# Measured values published in the supplement of paper PMC7024190.
# Counter-ions that a name gives are not always drawn. This is one part of the list. Single values are uncertain here, since repeats match poorly.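 Human embryonic kidney cells were transiently transfected with a plasmid bearing a Renilla luciferase gene under the HSV-TK promoter. This first-round screen tests roughly ten thousand compounds for ones that increase reporter output.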
# Tested on: HEK 293FT
# Experiment: log relative Renilla luciferase luminescence (reporter expression vs reference, reference not stated) (log (base not stated)); higher = higher recombinant reporter expression
# Settings: 10 µM; time after transfection 48 h
row,SMILES,log
1,CNCC(O)c1ccc(O)cc1 (stereo not drawn) [oxedrine],-0.0121
2,CN[C@@H]1[C@@H](O)[C@@H](O[C@@H]2[C@@H](O)[C@H](O[C@H]3O[C@H]([C@@H](C)O)[C@@H](O)[C@H](O)[C@H]3N)[C@@H](N)C[C@H]2N)OC[C@]1(C)O [geneticin],0.0252
3,CNC(C)(C)Cc1ccccc1 [mephentermine sulfate],0.00714
4,CCOP(=S)(OCC)Oc1cc(C)nc(C(C)C)n1 [dimpylate],-0.177
5,C[C@]12CCC(=O)C(O)=C1CC[C@@H]1[C@@H]2CC[C@]2(C)C(=O)CC[C@@H]12 [formestane],0.0515
6,CNC(=O)Oc1ccc2c(c1)[C@]1(C)CCN(C)[C@@H]1N2C [physostigmine salicylate],-0.0356
7,CN1[C@H]2C[C@H](OC(=O)[C@H](CO)c3ccccc3)C[C@@H]1[C@@H](O)C2 [anisodamine hydrobromide],0.0866
8,CN(C)C(=O)Oc1cccc([N+](C)(C)C)c1 [neostigmine bromide],-0.0356
9,COc1ccc(C(CN(C)C)C2(O)CCCCC2)cc1 (stereo not drawn) [venlafaxine hydrochloride],0.178
10,COc1cc2c(cc1OC)-c1c(oc3c4c(ccc3c1=O)OC(C(C)C)C4)CO2 (stereo not drawn) [dehydrodihydrorotenone],0.0933
11,O=c1c(O)c(-c2ccc(O)c(O)c2)oc2c(O)c(O)cc(O)c12 [gossypetin],0.0873
12,CN1CCc2cc3c(cc2C1O)OCO3 (stereo not drawn) [hydrastinine hydrochloride],-0.154
13,"CC1(C)C2CC(=O)[C@]3(C)C(CC[C@@]4(C)[C@H](c5ccoc5)OC(=O)[C@H]5O[C@]543)[C@@]2(C)C(=O)C[C@H]1O (stereo partly drawn) [1,7-dideacetoxy-1,7-dioxo-3-deacetylkhivorin]",-0.606
14,COc1ccc(C(=O)O)cc1OC [veratric acid],0.101
15,NP(N)(=O)NC(=O)c1ccc(F)cc1 [flurofamide],-0.0411
16,NCC(=O)c1ccccc1 [phenacylamine hydrochloride],0.0637
17,CC[C@H]1CN2CC[C@H]1C[C@H]2[C@H](O)c1ccnc2ccc(OC)cc12 [hydroquinine hydrobromide hydrate],-0.02
18,COc1ccc(/C=C/c2cc(O)cc(O)c2)cc1 [resveratrol 4'-methyl ether],-0.108
19,C/C=C(\C)C(=O)O[C@H]1C[C@@H](OC(C)=O)[C@@]2(C(=O)OC)CO[C@H]3[C@@H](O)[C@@](C)([C@]45O[C@@]4(C)[C@H]4C[C@@H]5O[C@@H]5OC=C[C@@]54O)[C@H]4[C@]1(CO[C@]4(O)C(=O)OC)[C@@H]32 [azadirachtin],-0.0162
20,Cc1cc2c(C(C)C)c(O)c(O)c(C=O)c2c(O)c1-c1c(C)cc2c(C(C)C)c(O)c(O)c(C=O)c2c1O [gossypol],-0.555
21,CC(=O)Nc1cc([As](=O)(O)O)ccc1O [acetarsol],-0.126
22,CC(=O)[O][Hg][c]1ccccc1 [phenylmercuric acetate],-1.38
23,O=c1[nH]c2ccccc2n1C1CCN(CCCC(c2ccc(F)cc2)c2ccc(F)cc2)CC1 [pimozide],-0.149

# 21 consecutive entries out of the list so far:
row,SMILES,log
3,CNC(C)(C)Cc1ccccc1 [mephentermine sulfate],0.00714
4,CCOP(=S)(OCC)Oc1cc(C)nc(C(C)C)n1 [dimpylate],-0.177
5,C[C@]12CCC(=O)C(O)=C1CC[C@@H]1[C@@H]2CC[C@]2(C)C(=O)CC[C@@H]12 [formestane],0.0515
6,CNC(=O)Oc1ccc2c(c1)[C@]1(C)CCN(C)[C@@H]1N2C [physostigmine salicylate],-0.0356
7,CN1[C@H]2C[C@H](OC(=O)[C@H](CO)c3ccccc3)C[C@@H]1[C@@H](O)C2 [anisodamine hydrobromide],0.0866
8,CN(C)C(=O)Oc1cccc([N+](C)(C)C)c1 [neostigmine bromide],-0.0356
9,COc1ccc(C(CN(C)C)C2(O)CCCCC2)cc1 (stereo not drawn) [venlafaxine hydrochloride],0.178
10,COc1cc2c(cc1OC)-c1c(oc3c4c(ccc3c1=O)OC(C(C)C)C4)CO2 (stereo not drawn) [dehydrodihydrorotenone],0.0933
11,O=c1c(O)c(-c2ccc(O)c(O)c2)oc2c(O)c(O)cc(O)c12 [gossypetin],0.0873
12,CN1CCc2cc3c(cc2C1O)OCO3 (stereo not drawn) [hydrastinine hydrochloride],-0.154
13,"CC1(C)C2CC(=O)[C@]3(C)C(CC[C@@]4(C)[C@H](c5ccoc5)OC(=O)[C@H]5O[C@]543)[C@@]2(C)C(=O)C[C@H]1O (stereo partly drawn) [1,7-dideacetoxy-1,7-dioxo-3-deacetylkhivorin]",-0.606
14,COc1ccc(C(=O)O)cc1OC [veratric acid],0.101
15,NP(N)(=O)NC(=O)c1ccc(F)cc1 [flurofamide],-0.0411
16,NCC(=O)c1ccccc1 [phenacylamine hydrochloride],0.0637
17,CC[C@H]1CN2CC[C@H]1C[C@H]2[C@H](O)c1ccnc2ccc(OC)cc12 [hydroquinine hydrobromide hydrate],-0.02
18,COc1ccc(/C=C/c2cc(O)cc(O)c2)cc1 [resveratrol 4'-methyl ether],-0.108
19,C/C=C(\C)C(=O)O[C@H]1C[C@@H](OC(C)=O)[C@@]2(C(=O)OC)CO[C@H]3[C@@H](O)[C@@](C)([C@]45O[C@@]4(C)[C@H]4C[C@@H]5O[C@@H]5OC=C[C@@]54O)[C@H]4[C@]1(CO[C@]4(O)C(=O)OC)[C@@H]32 [azadirachtin],-0.0162
20,Cc1cc2c(C(C)C)c(O)c(O)c(C=O)c2c(O)c1-c1c(C)cc2c(C(C)C)c(O)c(O)c(C=O)c2c1O [gossypol],-0.555
21,CC(=O)Nc1cc([As](=O)(O)O)ccc1O [acetarsol],-0.126
22,CC(=O)[O][Hg][c]1ccccc1 [phenylmercuric acetate],-1.38
23,O=c1[nH]c2ccccc2n1C1CCN(CCCC(c2ccc(F)cc2)c2ccc(F)cc2)CC1 [pimozide],-0.149

# More records

row,SMILES,log
1,COc1cccc2c1cc([N+](=O)[O-])c1c(C(=O)O)cc3c(c12)OCO3 [aristolochic acid],0.0285
2,C#CCN(C)[C@H](C)Cc1ccccc1 [selegiline hydrochloride],0.132
3,CN(C)C(=O)Oc1ccc[n+](C)c1 [pyridostigmine bromide],0.139
4,C[C@@H]1O[C@@H](O[C@@H]2C=C3CC[C@@H]4[C@H](CC[C@]5(C)[C@@H](c6ccc(=O)oc6)CC[C@]45O)[C@@]3(C)CC2)[C@H](O)[C@H](O)[C@H]1O [proscillaridin],-1.32
5,NCCc1ccccc1 [phenethylamine hydrochloride],-0.112
6,NCCCNCCSP(=O)(O)O [amifostine],-0.0467
7,c1ccc2c(c1)[nH]c1cnccc12 [norharman],0.0492
8,O=[N+]([O-])OCC(CO[N+](=O)[O-])O[N+](=O)[O-] [nitroglycerin],0.234
9,COc1cc2occc2c2oc(=O)ccc12 [isobergaptene],0.061
10,CCCCCCCCC(=O)NCc1ccc(O)c(OC)c1 [nonivamide],0.0161
11,Nc1ccc([As](=O)(O)O)cc1 [arsanilic acid],0.539
12,CC(C)c1ccc2c(c1O)CC[C@H]1C3=C(CC[C@]21C)C(=O)OC3 [triptophenolide],-0.124
13,CN1CCN(C(=O)O[C@H]2c3nccnc3C(=O)N2c2ccc(Cl)cn2)CC1 [eszopiclone],-0.0282
14,O=C1CC[C@@]2(O)[C@H]3Cc4ccc(O)c5c4[C@@]2(CCN3CC2CC2)[C@H]1O5 [naltrexone hydrochloride],-0.009
15,COc1ccc2c(c1O)-c1c(OC)c(OC)cc3c1[C@H](C2)N(C)CC3 [s-isocorydine (+)],0.0893
16,NC(=O)c1cc([N+](=O)[O-])cc([N+](=O)[O-])c1 [nitromide],-0.0539
17,CN[C@@H]1[C@@H](O)[C@@H](O[C@@H]2[C@@H](O)[C@H](O[C@H]3O[C@H](CN)CC[C@H]3N)[C@@H](N)C[C@H]2N)OC[C@]1(C)O.CN[C@@H]1[C@@H](O)[C@@H](O[C@@H]2[C@@H](O)[C@H](O[C@H]3O[C@H]([C@@H](C)N)CC[C@H]3N)[C@@H](N)C[C@H]2N)OC[C@]1(C)O.CN[C@@H]1[C@@H](O)[C@@H](O[C@@H]2[C@@H](O)[C@H](O[C@H]3O[C@H]([C@@H](C)NC)CC[C@H]3N)[C@@H](N)C[C@H]2N)OC[C@]1(C)O [gentamicin sulfate],0.121
18,C=C/C=C\CC1=C(C)[C@@H](OC(=O)[C@@H]2[C@@H](/C=C(\C)C(=O)OC)C2(C)C)CC1=O.C=C/C=C\CC1=C(C)[C@@H](OC(=O)[C@@H]2[C@@H](C=C(C)C)C2(C)C)CC1=O [pyrethrins],-0.251
19,O=C(O)CCCO [sodium oxybate],0.0623
20,NCc1cccnc1 [picolamine],0.127
21,CC(NC(C)(C)C)C(=O)c1cccc(Cl)c1 (stereo not drawn) [bupropion],-0.00825
22,CCOC(=O)CC(SP(=S)(OC)OC)C(=O)OCC (stereo not drawn) [malathion],0.109
23,NCC(CC(=O)O)c1ccc(Cl)cc1 (stereo not drawn) [baclofen],0.0328

row,SMILES,log
1,CC(=O)[C@H]1CC[C@H]2[C@@H]3CC[C@H]4C[C@H](O)CC[C@]4(C)[C@H]3CC[C@]12C [allopregnanolone],0.101
2,C=CCSSCC=C [garlicin],0.0271
3,CC(N)Cc1ccc(O)cc1 (stereo not drawn) [hydroxyamphetamine hydrobromide],-0.0119
4,"CCOC(=O)C1C(C=C(C)C)C1(C)C (stereo not drawn) [chrysanthemic acid, ethyl ester]",0.117
5,COC1=C[C@@H]2[C@@H]3Cc4ccc(OC)c(O)c4[C@]2(CCN3C)CC1=O [sinomenine],-0.139
6,O=[N+]([O-])C(Br)(CO)CO [bronopol],-0.776
7,NC1=NC(=O)C(c2ccccc2)O1 (stereo not drawn) [pemoline],-0.012
8,"O=C1C=CC(=O)c2ccccc21 [1,4-naphthoquinone]",-0.0284
9,C[C@@H]1O[C@@H](O[C@H]2CC[C@]3(C=O)[C@H]4CC[C@]5(C)[C@@H](C6=CC(=O)OC6)CC[C@]5(O)[C@@H]4CC[C@]3(O)C2)[C@H](O)[C@H](O)[C@H]1O [convallatoxin],-1.6
10,CN1[C@@H]2C[C@@H](OC(=O)[C@H](CO)c3ccccc3)C[C@H]1[C@@H]1O[C@@H]12 [scopolamine hydrobromide],-0.0115
11,"CC1(C)C2CC(=O)[C@]3(C)C(CC[C@@]4(C)[C@H](c5ccoc5)OC(=O)C5OC543)[C@@]2(C)[C@@H](O)C[C@H]1O (stereo partly drawn) [1,3-dideacetyl-7-deacetoxy-7-oxokhivorin]",0.194
12,CNc1ccccc1C(=O)O [n-methylanthranilic acid],0.0878
13,CN1C[C@H](C(=O)N[C@]2(C)O[C@@]3(O)[C@@H]4CCCN4C(=O)[C@H](Cc4ccccc4)N3C2=O)C=C2c3cccc4[nH]cc(c34)C[C@H]21 [ergotamine tartrate],0.0949
14,[O-][n+]1ccccc1[S-].[O-][n+]1ccccc1[S-].[Zn+2] [pyrithione zinc],-1.28
15,CCC(C)C(=O)O[C@@H]1C[C@@]2(C)[C@H](c3ccoc3)OC(=O)CC23OC2(C)O[C@]14[C@]1(C)[C@@H](CC(=O)OC)C5(C)CC1(O)[C@](O)(C5OC(=O)C1(C)OC1C)[C@@H](OC(C)=O)[C@]34O2 (stereo partly drawn) [utilin],0.29
16,C=CCc1ccc2c(c1)OCO2 [safrole],-0.00179
17,COP(=O)(OC)C(O)C(Cl)(Cl)Cl (stereo not drawn) [trichlorfon],0.505
18,"C[C@@H]1C(=O)O[C@H]2[C@H]1CC[C@@]1(C)C=CC(=O)[C@@]3(C)O[C@@]213 [epoxy (4,5alpha)-4,5-dihydrosantonin]",-0.000568
19,C=CCN1CC[C@]23c4c5ccc(O)c4O[C@H]2C(=O)CC[C@@]3(O)[C@H]1C5 [naloxone hydrochloride],0.0918
20,O=c1n(Cl)c(=O)n(Cl)c(=O)n1Cl [symclosene],0.0948
21,"C[C@]12CCC(=O)C=C1C=C[C@@H]1[C@@H]2CC[C@@]2(C)[C@H]1CC[C@@]2(O)CCC(=O)O [canrenoic acid, potassium salt]",0.0669
22,"CC[C@@H](C(=O)[C@@H](C)[C@@H](O)[C@H](C)[C@@H]1O[C@@H]([C@@H](CC)C(=O)O)CC[C@@H]1C)[C@H]1O[C@]2(C=C[C@@H](O)[C@]3(CC[C@@](C)([C@H]4CC[C@](O)(CC)[C@H](C)O4)O3)O2)[C@H](C)C[C@@H]1C [salinomycin, sodium]",-1.96
